US11419921B2, “Methods of treating neurological disorders” (EnClear Therapies, Inc., priority 2018, dated 2022)
Some entries share one result that the patent states for a list of compounds.

Test system: biotin-(PEG)4-(GR)10
Test: Digestion of biotin-(PEG)4-(GR)10 by immobilized proteases
Type: biochemical
Settings: 200 μM in PBS, after 5 minutes of incubation, FIG. 9

Substance: agarose resin having immobilized elastase: elastase immobilized in-house on agarose resin
- Digestion of biotin-(PEG)4-(GR)10: over 90%
